PubChem BioAssay AID652272 | Drosophila RNAi Screening Center – 2013

Screen: 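Genes whose knock-down decreases or increases Hedgehog reporter output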 (primary screen)
Cell system: Drosophila clone 8 (Cl8) cells
Knock-down reagent: long dsRNA against Drosophila genes
Measurement: 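Firefly light from a Hedgehog-responsive ptc promoter reporter and Renilla reference light, both read on a plate reader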
Direction: firefly Hh reporter signal: higher = more ptc reporter light; Renilla reference signal: higher = more Renilla control light
Active means: 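Called a hit if the two-replicate mean z-score lies below -2 or above +3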
Calls: active = hit: reporter lowered or raised; inactive = not a hit
In all, the deposit lists about 21,000 reagents; below is a random part of those with a known target gene and a result. Of all reagents, 503 (2.4%) were called active. 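Raw plate light values, not normalised; calls rest on replicate z-scores that were not deposited; hits include reporter decreases as well as increases.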 Unmarked entries are inactive. The record does not give: the amount of reagent, the time to read-out.

| gene | DRSC id | firefly Hh reporter signal, replicate 1 | firefly Hh reporter signal, replicate 2 | firefly Hh reporter signal, replicate 3 | Renilla reference signal, replicate 1 | Renilla reference signal, replicate 2 |
| --- | --- | --- | --- | --- | --- | --- |
| CG14070 (GeneID 34508) | DRSC02373 | 1.14e5 | 74384 | – | 3216 | 6381 |
| Cdc6 (GeneID 38989) | DRSC10563 | 84504 | 41029 | – | 3735 | 1867 |
| eRF1 (GeneID 40240) | DRSC11779 | 52608 (active) | 39704 | – | 3255 | 2340 |
| Gpo1 (GeneID 47611) | DRSC07128 | 1.20e5 | 88617 | – | 5701 | 4125 |
| cathD (GeneID 45268) | DRSC07588 | 84551 | 62491 | – | 2073 | 4584 |
| CG30001 (GeneID 246383) | DRSC05191 | 1.20e5 | 2.54e5 | – | 3110 | 10848 |
| Damm (GeneID 36266) | DRSC07393 | 1.14e5 | 81808 | – | 3074 | 5724 |
| Prosbeta7 (GeneID 40639) | DRSC12186 | 42176 (active) | 52896 | – | 3437 | 3643 |
| CheB93a (GeneID 42540) | DRSC15044 | 5.27e5 | 1.69e5 | – | 30004 | 3168 |
| Indy (GeneID 40049) | DRSC10393 | 74090 | 50576 | – | 3008 | 2263 |
| Cyp4ac2 (GeneID 33755) | DRSC03303 | 1.45e5 | 81513 | – | 4169 | 7869 |
| Smug (GeneID 42078) | DRSC15762 | 1.02e5 | 1.06e5 | – | 2160 | 7286 |
| tej (GeneID 36590) | DRSC07219 | 95845 | 49496 | – | 2352 | 3735 |
| mRpS33 (GeneID 41991) | DRSC14239 | 1.30e5 | 1.11e5 | – | 2683 | 485 |
| CG7394 (GeneID 39294) | DRSC10835 | 77811 | 66474 | 66120 | 5893 | 4155 |
| CG8132 (GeneID 41121) | DRSC16383 | 1.38e5 | 1.72e5 | – | 4304 | 4742 |
| l(2)efl (GeneID 37744) | DRSC04698 | 1.20e5 | 63109 | – | 4672 | 2550 |
| Larp4B (GeneID 38399) | DRSC08192 | 50461 | 22299 | – | 1840 | 1642 |
| Gr98a (GeneID 43305) | DRSC14719 | 4.31e5 | 61617 | – | 2427 | 2427 |
| Nrx-IV (GeneID 39387) | DRSC11238 | 1.10e5 | 68677 | – | 4295 | 2931 |
| dnt (GeneID 35207) | DRSC03522 | 52691 | 36474 | – | 2760 | 1907 |
| Gr22e (GeneID 117498) | DRSC20912 | 5.00e5 | 2.55e5 | – | 22464 | 5882 |
| DCTN5-p25 (GeneID 34873) | DRSC03525 | 65364 | 77100 | – | 1571 | 5957 |
| Dph1 (GeneID 39317) | DRSC09851 | 87408 | 86581 | – | 4037 | 3528 |
| Clamp (GeneID 35445) | DRSC03718 | 1.53e5 | 1.10e5 | – | 6146 | 4727 |
| CG18731 (GeneID 59246) | DRSC15377 | 1.01e5 | 1.20e5 | – | 3344 | 3113 |
| CG5810 (GeneID 42513) | DRSC15880 | 6.94e5 | 1.23e5 | – | 40340 | 594 |
| Cdc50 (GeneID 32615) | DRSC20224 | 59461 | 1.98e5 | – | 1516 | 8146 |
| tsg (GeneID 32160) | DRSC20380 | 66646 | 3.34e5 | – | 1565 | 11900 |
| b6 (GeneID 31124) | DRSC18740 | 74518 | 1.64e5 | – | 1779 | 6617 |
| CG1998 (GeneID 32300) | DRSC19829 | 95408 | 3.61e5 | – | 1636 | 14557 |
| CG31759 (GeneID 326158) | DRSC01230 | 5.99e5 | 2.19e5 | – | 30935 | 8008 |
| CG31272 (GeneID 326130) | DRSC16058 | 69718 | 1.23e5 | – | 2065 | 3606 |
| St4 (GeneID 36548) | DRSC07008 | 68832 | 74083 | – | 1888 | 4790 |
| CG7573 (GeneID 39272) | DRSC10884 | 29229 | 54452 | 42357 | 5401 | 3643 |
| CG12990 (GeneID 32747) | DRSC19510 | 90404 | 2.39e5 | – | 3266 | 8131 |
| CG13068 (GeneID 39784) | DRSC09951 | 2.02e5 | – | – | 8224 | 6048 |
| CG17191 (GeneID 43249) | DRSC15185 | 1.25e5 | 85492 | – | 4560 | 3069 |
| CG34193 (GeneID 5740572) | DRSC05665 | 78724 | 1.74e5 | – | 2624 | 7048 |
| AANATL6 (GeneID 37212) | DRSC06773 | 99237 | 54756 | – | 2674 | 4416 |
| Syx7 (GeneID 36173) | DRSC11763 | 1.18e5 | 1.57e5 | – | 4579 | 5360 |
| Syn (GeneID 41247) | DRSC16876 | 97057 | 1.23e5 | – | 2987 | 3520 |
| SERCA (GeneID 49297) | DRSC04600 | 64167 | 80151 | – | 3200 | 3112 |
| AspRS (GeneID 36420) | DRSC05914 | 84519 | 44880 | – | 3560 | 2122 |
| mas (GeneID 38499) | DRSC08720 | 1.22e5 | 76339 | – | 4843 | 3389 |
| CG18493 (GeneID 42319) | DRSC15334 | 5.79e5 | 85322 | – | 28676 | 2400 |
| His3.3B (GeneID 31848) | DRSC17773 | 1.11e5 | 3.53e5 | – | 3412 | 11130 |
| His3.3B (GeneID 31848) | DRSC18673 | 2.58e5 | 63516 | – | 6370 | 1488 |
| CG12674 (GeneID 33384) | DRSC00348 | 1.02e5 | 75712 | – | 2423 | 1811 |
| Ipo9 (GeneID 41367) | DRSC16813 | 57159 | 1.23e5 | – | 2081 | 3168 |
| Cyp313b1 (GeneID 41019) | DRSC16629 | 89091 | 1.29e5 | – | 4018 | 4299 |
| Mtap (GeneID 36955) | DRSC06890 | 1.02e5 | 88141 | – | 4640 | 4279 |
| Grl36b (GeneID 318940) | DRSC01627 | 1.03e5 | 2.07e5 | – | 2490 | 10069 |
| CG12783 (GeneID 42019) | DRSC14538 | 76338 | 1.06e5 | – | 2410 | 2792 |
| Tango6 (GeneID 35155) | DRSC02671 | 42379 | 63417 | – | 2034 | 2640 |
| Ca-alpha1T (GeneID 31550) | DRSC17842 | 96048 | 1.30e5 | – | 3323 | 5612 |
| Ca-alpha1T (GeneID 31550) | DRSC18103 | 1.61e5 | 5.52e5 | 3.00e5 | 6108 | 3272 |
| Ca-alpha1T (GeneID 31550) | DRSC18356 | 62401 | 1.21e5 | – | 2085 | 4976 |
| Ca-alpha1T (GeneID 31550) | DRSC18357 | 66459 | 1.50e5 | – | 2663 | 5707 |
| CG14556 (GeneID 43176) | DRSC14899 | 5.95e5 | 1.40e5 | – | 28693 | 4160 |
| Rpt4 (GeneID 31567) | DRSC18713 | 78816 (active) | 38787 | – | 6764 | 1776 |
| metro (GeneID 36176) | DRSC06341 | 1.06e5 | 55254 | – | 3872 | 2059 |
| metro (GeneID 36176) | DRSC06725 | 85154 | 62678 | – | 1561 | 4340 |
| Fip1 (GeneID 40569) | DRSC12147 | 77154 | 86669 | – | 3426 | 4577 |
| unc-104 (GeneID 36876) | DRSC07710 | 1.13e5 | 74530 | – | 3222 | 4884 |
| CG14717 (GeneID 41412) | DRSC14940 | 65546 | 71132 | – | 2034 | 1888 |
| bdwf (GeneID 42057) | DRSC15532 | 1.04e5 | 72032 | – | 4210 | 2898 |
| SiaT (GeneID 37950) | DRSC04494 | 72503 | 46528 | – | 1789 | 4304 |
| Oseg1 (GeneID 38957) | DRSC10776 | 78339 | 49979 | – | 3750 | 1996 |
| ttk (GeneID 48317) | DRSC14078 | 4.58e5 | 1.97e5 | – | 26761 | 3707 |
| ttk (GeneID 48317) | DRSC17091 | 85833 | 1.66e5 | – | 1677 | 5414 |
| ninaB (GeneID 41678) | DRSC16807 | 66327 | 79411 | – | 1492 | 1930 |
| morgue (GeneID 33648) | DRSC00264 | 96212 | 70994 | – | 4260 | 2816 |
